Assay: Kugelrohr distillation (purification) of SMA in the presence of the inhibitors
Conditions: distilled SMA; 500 ppm inhibitor, kugelrohr 240 °C, about 0.2 mbar
Method: The temperature of the kugelrohr is set to 240° C. The distillation starts when the vacuum reached about 0.2 mbar. Polymerization in the rotating pitch is evaluated by visually determining increased viscosity.
The inhibitors were added as such to the SMA prior to the distillation, no methanolic solution as described earlier is used.

In order of falling “Yield (%)” value:
1. CCCCCCCCCCCCCCCCS(=O)(=O)[O-].CN(C)c1ccc2nc3ccc(N(C)C)cc3[s+]c2c1.[Cl-].[Na+] [Inhibitor I-2a]  95%
2. CCCCCCCCS(=O)(=O)[O-].CN(C)c1ccc2nc3ccc(N(C)C)cc3[s+]c2c1 [Inhibitor I-1, octanesulfonate salt of methylene blue]  93%
3. CCCCCCCCS(=O)(=O)[O-].CN(C)c1ccc2nc3ccc(N(C)C)cc3[s+]c2c1.[Cl-].[Na+] [Inhibitor I-1a]  92%
